Results published in PMC9355564, “A network of cytosolic (co)chaperones promotes the biogenesis of mitochondrial signal-anchored outer membrane proteins” (eLife, 2022).
No constants are given. Whether binding was seen depends on the method and setting. Binding seen in cells or lysates may run through a third protein. Binding calls can cover weak binding; strength is not graded here.

What was measured:
Experiment in all cases: pull-down; C-terminally 3HA-tagged proteins translated in vitro in yeast extract (from WT cells, or from cells depleted of Ydj1 and Sis1), pulled down with anti-HA beads; co-purified endogenous proteins in the eluate detected by western blot
[1] = target: T1, Tom70-3HA (full length) (S. cerevisiae) (UniProt P07213)
T1 sequence: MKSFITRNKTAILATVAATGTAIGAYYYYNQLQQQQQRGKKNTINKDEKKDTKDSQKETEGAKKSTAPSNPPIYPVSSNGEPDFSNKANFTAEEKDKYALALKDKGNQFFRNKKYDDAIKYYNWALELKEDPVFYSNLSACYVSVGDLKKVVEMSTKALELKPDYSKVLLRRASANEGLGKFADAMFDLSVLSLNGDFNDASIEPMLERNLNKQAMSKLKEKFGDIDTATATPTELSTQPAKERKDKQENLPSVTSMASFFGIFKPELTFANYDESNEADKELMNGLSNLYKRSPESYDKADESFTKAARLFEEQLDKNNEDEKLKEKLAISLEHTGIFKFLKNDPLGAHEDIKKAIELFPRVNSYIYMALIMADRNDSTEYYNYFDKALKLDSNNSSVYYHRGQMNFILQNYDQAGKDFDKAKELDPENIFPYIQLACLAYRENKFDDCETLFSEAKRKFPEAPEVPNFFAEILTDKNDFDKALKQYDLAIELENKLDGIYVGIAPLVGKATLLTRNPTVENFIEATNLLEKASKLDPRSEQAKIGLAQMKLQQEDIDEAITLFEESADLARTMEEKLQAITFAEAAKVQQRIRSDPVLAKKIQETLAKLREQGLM

[2] = target: T2, Mcr1-3HA (full length) (S. cerevisiae) (UniProt P36060)
T2 sequence: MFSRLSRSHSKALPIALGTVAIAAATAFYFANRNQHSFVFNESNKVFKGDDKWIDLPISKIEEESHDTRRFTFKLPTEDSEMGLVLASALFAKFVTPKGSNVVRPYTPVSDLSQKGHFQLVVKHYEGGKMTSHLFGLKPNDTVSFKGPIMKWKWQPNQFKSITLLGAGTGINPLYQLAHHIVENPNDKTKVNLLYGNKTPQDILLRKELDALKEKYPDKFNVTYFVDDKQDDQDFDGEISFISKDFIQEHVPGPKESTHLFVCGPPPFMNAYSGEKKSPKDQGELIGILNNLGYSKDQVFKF

[3] = target: T3, Msp1-3HA (full length) (S. cerevisiae) (UniProt P28737)
T3 sequence: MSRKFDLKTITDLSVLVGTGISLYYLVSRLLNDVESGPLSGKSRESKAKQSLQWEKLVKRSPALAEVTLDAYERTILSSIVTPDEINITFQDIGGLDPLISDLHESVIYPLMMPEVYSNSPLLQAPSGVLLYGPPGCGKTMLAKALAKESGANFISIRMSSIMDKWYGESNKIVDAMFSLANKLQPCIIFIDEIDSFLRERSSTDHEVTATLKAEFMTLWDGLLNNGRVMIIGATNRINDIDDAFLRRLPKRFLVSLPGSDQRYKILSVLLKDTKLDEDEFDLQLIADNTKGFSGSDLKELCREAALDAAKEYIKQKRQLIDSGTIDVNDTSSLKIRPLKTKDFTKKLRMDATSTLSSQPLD

Measured: binding

Hsc82/Hsp82
binds weakly: all assays above
